From patent publication US6562632B1, “Reactive derivatives of sulforhodamine 101 with enhanced hydrolytic stability” (Molecular Probes, Inc., priority 1995, dated 2003)

Tests used:
goat IgG protein = assay: Effect of hydrolytic stability on protein labeling efficiency; details: dye/protein ratio 10
[1] = test system: goat anti-mouse IgG (GAM); assay: Protein labeling with reactive dye, degree of substitution on goat anti-mouse IgG
[2] = dye in 25% DMF/75% aqueous sodium bicarbonate for 1 minute before labeling
[3] = dye in 25% DMF/75% aqueous sodium bicarbonate for 5 minutes before labeling

O=C(CCCCCNS(=O)(=O)c1ccc(C2=c3cc4c5c(c3Oc3c2cc2c6c3CCCN6CCC2)CCC[N+]=5CCC4)c(S(=O)(=O)[O-])c1)ON1C(=O)CCC1=O [Compound 2]
Degree of Substitution (goat IgG protein; [2]): 4.09
Degree of Substitution (goat IgG protein; [3]): 3.64
Degree of Substitution (goat IgG protein; dye in 25% DMF/75% aqueous sodium bicarbonate for 10 minutes before labeling): 3.38
Degree of Substitution (goat IgG protein; dye in 25% DMF/75% aqueous sodium bicarbonate for 20 minutes before labeling): 2.96
Degree of Substitution (goat IgG protein; dye in 25% DMF/75% aqueous sodium bicarbonate for 30 minutes before labeling): 3.00
Degree of Substitution ([1]; Dye:Protein Ratio 2.5): 1.29
Degree of Substitution ([1]; Dye:Protein Ratio 5.5): 2.54
Degree of Substitution ([1]; Dye:Protein Ratio 8.0): 3.27

sulfonyl chloride of sulforhodamine 101 [SSC, reference compound]
Degree of Substitution (goat IgG protein; [2]): 0.30
Degree of Substitution (goat IgG protein; [3]): no protein conjugate is formed
